According to PubChem BioAssay AID720504 (National Center for Advancing Translational Sciences (NCATS), 2013):
Among all 360,000 compounds or so, about 10,000 (2.8%) were called active. The shares of active, inactive and inconclusive entries below differ from those in the screen. Calls come from the whole dose curve; as a rule, active = well fitted inhibition curve with a large enough effect; inconclusive = small, poorly fitted or top-dose-only effect; inactive = flat fitted curve, though single readings scatter. Potencies beside an inconclusive call are fits to weak or partial responses and may not hold up.

By UniProt entry, the sequences of proteins in these tests, tags left out.
UniProt P53350, whole entry, looked up: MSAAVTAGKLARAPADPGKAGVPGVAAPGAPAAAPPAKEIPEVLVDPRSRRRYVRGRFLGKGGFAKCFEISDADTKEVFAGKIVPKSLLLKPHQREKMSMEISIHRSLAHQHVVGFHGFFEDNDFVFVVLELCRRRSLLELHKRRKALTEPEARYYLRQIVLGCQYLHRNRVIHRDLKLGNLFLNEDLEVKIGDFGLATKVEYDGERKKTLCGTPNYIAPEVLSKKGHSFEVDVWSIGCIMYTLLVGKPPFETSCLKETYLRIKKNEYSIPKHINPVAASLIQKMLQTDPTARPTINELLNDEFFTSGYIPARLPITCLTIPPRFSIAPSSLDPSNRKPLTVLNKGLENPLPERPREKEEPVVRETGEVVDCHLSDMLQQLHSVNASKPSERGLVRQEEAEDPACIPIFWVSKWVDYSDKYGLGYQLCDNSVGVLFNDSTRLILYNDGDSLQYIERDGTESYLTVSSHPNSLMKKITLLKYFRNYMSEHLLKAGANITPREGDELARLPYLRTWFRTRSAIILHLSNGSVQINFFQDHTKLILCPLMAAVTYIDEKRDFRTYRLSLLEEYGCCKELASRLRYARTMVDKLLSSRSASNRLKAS

Each molecule was assayed against Serine/threonine-protein kinase PLK1 (Homo sapiens) (UniProt P53350) (assay: qHTS for Inhibitors of PLK1-PDB (polo-like kinase 1 - polo-box domain): Primary Screen). Conditions: Plk1 PBD binding of FITC phosphopeptide, fluorescence polarization.
% is set by controls: 0 for no effect and ±100 for the full control effect; potency is the fitted concentration of half-maximal effect.
Note: nearly all actives have a fitted effect of over 65% in size.
Throughout, for max response, negative = inhibition: series mostly up to about 57 µM.

| SMILES | Potency | max response, negative = inhibition |
| --- | --- | --- |
| CCSc1ccc2nnc(-c3cccc(F)c3)n2n1 | inconclusive: 25.1 µM [inhibitor, partial curve] | – |
| O=C(O)c1ccc(C[n+]2c(-c3ccccc3)csc2Nc2ccccc2)cc1 | inconclusive: 26.7 µM [inhibitor, single point] | – |
| O=C(NCCO)c1ccc(-c2cnc3cccnn23)cc1 | – | inactive: 5.82% |
| Cc1cccc(C(=O)N/N=C/c2coc3ccccc3c2=O)c1 | inconclusive: 29.9 µM [inhibitor, partial curve] | – |
| N#Cc1ccccc1Cn1cc(/C=C/[N+](=O)[O-])c2ccccc21 | inconclusive: 4.74 µM [inhibitor, full curve] | – |
| Cc1ccc(Cn2ncc3c(N4CCOCC4)ncnc32)cc1 | – | inactive: -6.17% |
| O=[N+]([O-])c1c(Nc2ccc(O)cc2)cc(Cl)c2nonc12 | active: 1.68 µM | – |
| CC1=CC(=O)C=C(C)C1=NOC(=O)c1cccc([N+](=O)[O-])c1 | active: 9.47 µM | – |
| COc1cc(C2C(C#N)=C(N)OC3=C2C(=O)CC(C)(C)C3)cc([N+](=O)[O-])c1O (stereo not given) | – | inconclusive: -31.1% [inhibitor] |
| CN(C)c1ccc(/C=C2\N=C(C(C)(C)C)OC2=O)cc1 | inconclusive: 37.7 µM [inhibitor, single point] | – |
| Cc1ccnc(NC(c2ccccc2O)c2oc(CO)cc(=O)c2O)c1 (stereo not given) | inconclusive: 7.52 µM [inhibitor, full curve] | – |
| CCOC(=O)C1=C(c2ccccc2)N=c2s/c(=C\c3cccc(O)c3)c(=O)n2C1c1cccs1 (stereo not given) | – | inactive: -1.47% |
| COc1ccc(CCNC(=O)c2ccc3c(c2)NC(=O)C(C(C)C)N3)cc1OC (stereo not given) | – | inactive: -3.43% |
| CC(C)(C)c1cc(OS(C)(=O)=O)ccc1O | inconclusive: 37.7 µM [inhibitor, single point] | – |
| Cc1[nH][nH]c(=O)c1C(c1ccc([N+](=O)[O-])cc1)c1c(C)[nH][nH]c1=O | active: 26.7 µM | – |
| O=S(=O)(Nc1nc2ccccc2nc1NCc1ccco1)c1ccc(Cl)cc1 | inconclusive: 23.8 µM [inhibitor, single point] | – |
| CCc1ccc2oc(C(=O)NC3CCS(=O)(=O)C3)cc(=O)c2c1 (stereo not given) | – | inactive: -4.08% |
| CCN(CC)C(=O)CSc1ccccc1N | inconclusive: 18.9 µM [inhibitor, single point] | – |
| COc1cc(C2C3CN(C)CC=C3C(C#N)=C(N)C2(C#N)C#N)ccc1OC(C)C (stereo not given) | inconclusive: 21.2 µM [inhibitor, partial curve] | – |
| CC12CCC(C(=O)N(CSC(=S)N/N=C\c3ccccc3O)C1=O)C2(C)C (stereo not given) | inconclusive: 23.8 µM [inhibitor, partial curve] | – |

Exported as labelled records: part of the list above.
CC(C)(C)c1cc(OS(C)(=O)=O)ccc1O
  Potency: inconclusive: 37.7 µM [inhibitor, single point]
COc1cc(C2C3CN(C)CC=C3C(C#N)=C(N)C2(C#N)C#N)ccc1OC(C)C (stereo not given)
  Potency: inconclusive: 21.2 µM [inhibitor, partial curve]
